In PMC11091695:
These are yes or no findings as the source states them, for the method shown. In cells and extracts the contact can be indirect. Some entries that bind do so weakly or less than the wild type. Tags and fused reporters may be left off the sequences shown.

Legend:
[1] = biological target: T1, GFP-tagged Vam7 (S. cerevisiae) (UniProt P32912); assay: co-IP; 3FLAG-tagged R-SNARE from a centromeric (low-copy) plasmid in WT yeast expressing the GFP-tagged Vam7 form; spheroplasts cross-linked with dithiobis(succinimidyl propionate), lysed in 20 mM Pipes-NaOH pH 6.8, 200 mM sorbitol, 150 mM NaCl, 5 mM MgCl2, 1% Triton X-100; GFP-Trap magnetic agarose beads, 2 h at 4 °C; blot with anti-FLAG
T1 sequence: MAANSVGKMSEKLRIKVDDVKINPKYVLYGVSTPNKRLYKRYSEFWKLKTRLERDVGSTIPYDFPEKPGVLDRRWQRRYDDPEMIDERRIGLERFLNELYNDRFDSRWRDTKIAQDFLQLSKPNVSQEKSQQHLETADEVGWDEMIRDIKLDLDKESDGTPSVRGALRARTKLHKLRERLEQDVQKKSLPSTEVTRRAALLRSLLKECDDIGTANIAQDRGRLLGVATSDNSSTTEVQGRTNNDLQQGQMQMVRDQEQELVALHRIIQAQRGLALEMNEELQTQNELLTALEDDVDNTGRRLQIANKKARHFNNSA

[2] = biological target: T2, GFP−Vam7-Q284R (S. cerevisiae) (UniProt P32912); assay: as above
T2 sequence: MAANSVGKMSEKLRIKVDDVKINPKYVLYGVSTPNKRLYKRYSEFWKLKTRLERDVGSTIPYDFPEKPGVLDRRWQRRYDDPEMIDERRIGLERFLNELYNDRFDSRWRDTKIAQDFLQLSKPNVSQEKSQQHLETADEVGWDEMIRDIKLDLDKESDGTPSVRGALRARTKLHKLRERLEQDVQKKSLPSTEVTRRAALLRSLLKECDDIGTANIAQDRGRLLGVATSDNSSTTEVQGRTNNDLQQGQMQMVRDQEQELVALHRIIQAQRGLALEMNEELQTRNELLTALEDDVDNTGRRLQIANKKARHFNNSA

[3] = biological target: T2, GFP−Vam7-Q284R (S. cerevisiae); assay: co-IP; as a1, but WT cells overexpressing VAM3, VTI1 and 3FLAG−YKT6 or 3FLAG−ykt6-R165Q from a single multicopy (2 μm) plasmid; GFP-tagged Vam7 form immunoprecipitated

B1: 3FLAG−Nyv1 (protein, UniProt Q12255 1-253)
chain: MKRFNVSYVEVIKNGETISSCFQPFQKNENYGTITSANEQITPVIFHNLIMDMVLPKVVPIKGNKVTKMSMNLIDGFDCFYSTDDHDPKTVYVCFTLVDMPKILPIRILSGLQEYESNATNELLSSHVGQILDSFHEELVEYRNQTLNSSGNGQSSNGNGQNTISDIGDATEDQIKDVIQIMNDNIDKFLERQERVSLLVDKTSQLNSSSNKFRRKAVNIKEIMWWQKVKNITLLTFTIILFVSAAFMFFYLW
- binding [1]: binds

B2: 3FLAG−Nyv1-R192Q (protein, UniProt Q12255 1-253)
chain: MKRFNVSYVEVIKNGETISSCFQPFQKNENYGTITSANEQITPVIFHNLIMDMVLPKVVPIKGNKVTKMSMNLIDGFDCFYSTDDHDPKTVYVCFTLVDMPKILPIRILSGLQEYESNATNELLSSHVGQILDSFHEELVEYRNQTLNSSGNGQSSNGNGQNTISDIGDATEDQIKDVIQIMNDNIDKFLEQQERVSLLVDKTSQLNSSSNKFRRKAVNIKEIMWWQKVKNITLLTFTIILFVSAAFMFFYLW
- binding [2]: binds

B3: 3FLAG−Ykt6-R165Q (protein, UniProt P36015 1-200)
chain: MRIYYIGVFRSGGEKALELSEVKDLSQFGFFERSSVGQFMTFFAETVASRTGAGQRQSIEEGNYIGHVYARSEGICGVLITDKEYPVRPAYTLLNKILDEYLVAHPKEEWADVTETNDALKMKQLDTYISKYQDPSQADAIMKVQQELDETKIVLHKTIENVLQQGEKLDNLVDKSESLTASSKMFYKQAKKSNSCCIIM
- binding [3]: binds
